Experimental data: PubChem BioAssay AID588590 (National Center for Advancing Translational Sciences (NCATS), 2011)
In all, about 390,000 compounds went through this assay and about 4,000 (1%) were called active. This list was built around the results that the source calls inconclusive (neither active nor inactive); the mix of calls is not that of the screen. Calls follow the shape of the dose curve; as a rule, active = well fitted inhibition curve with a large enough effect; inconclusive = small, poorly fitted or top-dose-only effect, or another doubt; inactive = no such curve, though single readings can be large or run the other way. Potencies beside an inconclusive call are fits to weak or partial responses and may not hold up.
Potency is read from the fitted curve at half-maximal effect.

By UniProt entry, the sequences of proteins in these tests, tags left out. Where a name states a change or a piece, a line headed by the entry shows the natural chain unless it says otherwise.
UniProt Q9UNA4: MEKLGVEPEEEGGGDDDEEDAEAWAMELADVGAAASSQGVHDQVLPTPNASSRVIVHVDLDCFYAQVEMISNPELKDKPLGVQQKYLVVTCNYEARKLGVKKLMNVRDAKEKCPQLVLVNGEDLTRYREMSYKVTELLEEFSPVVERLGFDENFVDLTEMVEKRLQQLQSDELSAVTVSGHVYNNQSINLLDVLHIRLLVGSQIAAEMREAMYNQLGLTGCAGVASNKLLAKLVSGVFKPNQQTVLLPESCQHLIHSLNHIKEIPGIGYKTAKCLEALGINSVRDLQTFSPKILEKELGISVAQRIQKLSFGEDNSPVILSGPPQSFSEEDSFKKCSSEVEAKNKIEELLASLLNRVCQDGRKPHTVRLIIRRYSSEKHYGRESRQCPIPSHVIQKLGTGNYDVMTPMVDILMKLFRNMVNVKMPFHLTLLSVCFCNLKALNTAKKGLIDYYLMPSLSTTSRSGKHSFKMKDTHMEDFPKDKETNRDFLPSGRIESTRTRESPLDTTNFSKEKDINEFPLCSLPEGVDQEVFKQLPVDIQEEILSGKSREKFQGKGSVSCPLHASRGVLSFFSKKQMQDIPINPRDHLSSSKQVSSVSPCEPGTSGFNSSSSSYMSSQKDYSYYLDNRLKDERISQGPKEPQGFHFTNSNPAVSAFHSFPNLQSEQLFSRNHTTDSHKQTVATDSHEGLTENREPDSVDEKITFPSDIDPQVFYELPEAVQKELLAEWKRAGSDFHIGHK

What follows are compounds tested against DNA polymerase iota (Homo sapiens) (UniProt Q9UNA4) (assay: qHTS for Inhibitors of Polymerase Iota). Conditions: Pol iota fluorescent replication assay, 10 min; series mostly up to 115 µM; activity, negative = inhibition: at the top concentration.
In short: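 Fluorescent replication assay read twice, at 0 min and 10 min after adding 50 nM (final) substrate. Enzyme (10 nM) and compounds were first incubated 15 min at room temperature; enzyme-free buffer wells were negative controls.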
For `CCCCSc1nc2c(c(=O)[nH]1)CCC2`, the Potency was inconclusive: 112 µM [inhibitor, single point].
With `O=C(CNc1ccccc1)N/N=C/c1ccc([N+](=O)[O-])o1` the Potency was inconclusive: 39.8 µM [inhibitor, partial curve, poor fit].
In the case of `COc1ccc(-c2[nH]nc3c2C(c2ccncc2)C(C#N)=C(N)O3)cc1` (stereo unspecified), the Potency is reported as inconclusive: 31.6 µM [inhibitor, partial curve, poor fit].
`C#CCn1c(=NC(=O)c2cc(Cl)sc2Cl)sc2cc(S(N)(=O)=O)ccc21` was tested, and the Potency was inconclusive: 44.7 µM [inhibitor, partial curve, poor fit].
`O=C(COC(=O)c1ccccc1O)NCc1ccc2c(c1)OCO2` was tested, and the “activity, negative = inhibition” value was inactive: 21%.
`Brc1ccc(-n2nc(-c3ccccc3)c3cnc4cc5c(cc4c32)OCO5)cc1` was tested, and the Potency was inconclusive: 89.1 µM [inhibitor, single point].
With `O=C(O)c1cc(C(=O)O)cc(N2C(=O)CSC2=S)c1` the Potency was active: 22.4 µM.
For `Cc1ccc(/C=C/C(=O)N2CCN(S(=O)(=O)c3ccc(C)c(C)c3)CC2)o1`, the Potency was inconclusive: 22.4 µM [inhibitor, full curve, poor fit].
For `O=C(CSc1nc(-c2cccs2)nc2cc(=O)[nH]n12)Nc1ccccc1F`, the Potency was inconclusive: 89.1 µM [inhibitor, single point].
`Cc1cc(Br)ccc1NC(=O)c1ccc(NS(=O)(=O)c2c(C)noc2C)cc1` was tested, and the Potency was inconclusive: 79.4 µM [inhibitor, partial curve].
`O=[N+]([O-])c1c(Nc2ccccc2O)ccc2nonc12` was tested, and the “activity, negative = inhibition” value was inactive: -20.5%.
`O=C(N/N=C/c1cccn1-c1ccc([N+](=O)[O-])cc1)c1cccnc1` was tested, and the Potency was inconclusive: 20 µM [inhibitor, partial curve, poor fit].
For `CCCC1=Nc2cc(C(=O)NCCc3ccccc3)ccc2Sc2ccc(C)cc21`, the Potency was inconclusive: 39.8 µM [inhibitor, single point].
With `CC1CCC(C(C)C)C(OC(=O)C[n+]2cccc(C(N)=O)c2)C1` (stereo unspecified) the “activity, negative = inhibition” value was inactive: -16.4%.
With `O=C(O)CC/C(=C\c1ccc(N2CCCC2)c([N+](=O)[O-])c1)c1nc2ccccc2s1` the Potency was inconclusive: 15.8 µM [inhibitor, partial curve, poor fit].
With `Cn1c(/C=C/c2ccc([N+](=O)[O-])o2)nc2ccccc2c1=O` the Potency was inconclusive: 22.4 µM [inhibitor, partial curve].
`COc1ccc(NC(=O)Cn2cnc3ccc(S(=O)(=O)N4CCC(C)CC4)cc3c2=O)cc1OC` was tested, and the Potency was inconclusive: 100 µM [inhibitor, partial curve, poor fit].
With `COC(=O)c1c(NC(=O)Nc2ccc(Cl)cc2)sc(C)c1C` the Potency was inconclusive: 44.7 µM [inhibitor, partial curve].
In the case of `CC(C)c1ccc(/C=N/NC(=O)c2cc(-c3cccc([N+](=O)[O-])c3)n[nH]2)cc1`, the Potency is reported as inconclusive: 39.8 µM [inhibitor, single point].
In the case of `Cc1ccc(C2C(C#N)=C(N)SC(N)=C2C#N)cc1`, the “activity, negative = inhibition” value is reported as inactive: 3.29%.
`Cc1ccc(-c2cc(N)n[nH]2)cc1` was tested, and the Potency was inconclusive: 100 µM [inhibitor, partial curve].
`CCCOc1ccc(-c2nc(=S)[nH][nH]2)cc1` was tested, and the Potency was inconclusive: 39.8 µM [inhibitor, partial curve, poor fit].
With `O=C(CCCCCn1c(=O)[nH]c2ccccc2c1=O)NCc1ccccc1` the “activity, negative = inhibition” value was inactive: 12.5%.
For `CCC(=O)N1CCc2cc(S(=O)(=O)NC(Cc3ccccc3)C(=O)Nc3cccc(OC)c3)ccc21` (stereo unspecified), the “activity, negative = inhibition” value was inactive: 5.71%.
With `CSC1=NC(C)(C)C=C(/C=C/c2ccc(Cl)cc2Cl)N1` the “activity, negative = inhibition” value was inactive: 23.6%.
With `Cc1ccc(S(=O)(=O)N2CCN(c3nc(-c4cccs4)nc4ncccc34)CC2)cc1` the “activity, negative = inhibition” value was inactive: 12.8%.
In the case of `Cc1ccc(-n2nc(C)c3c2OC(N)=C(C#N)C3c2ccncc2)cc1` (stereo unspecified), the Potency is reported as inconclusive: 20 µM [inhibitor, partial curve, poor fit].
For `CSc1nnc(N2C(=O)C(O)=C(C(=O)c3ccco3)C2c2ccccc2)s1` (stereo unspecified), the Potency was inconclusive: 8.91 µM [inhibitor, partial curve].
`Cc1cc(C)c(O)c(-c2cc(C(=O)Nc3cccnc3)[nH]n2)c1` was tested, and the Potency was inconclusive: 56.2 µM [inhibitor, partial curve, poor fit].
In the case of `OCCCNc1cc(-c2ccccc2)nc2cc(-c3ccc(F)cc3)nn12`, the Potency is reported as inconclusive: 50.1 µM [inhibitor, partial curve].
`COC(=O)C(=O)Nc1cccc2cccnc12` was tested, and the “activity, negative = inhibition” value was inactive: 6.06%.
For `NC(=O)c1c(NC(=O)Cn2nc(C(=O)O)c3ccccc3c2=O)sc2c1CCC2`, the Potency was inconclusive: 15.8 µM [inhibitor, full curve].
With `COC(=O)[C@]1(C)N[C@H](CN(C)C(=O)c2ccccc2)[C@@H]2C(=O)N(C)C(=O)[C@@H]21` the Potency was inconclusive: 20 µM [inhibitor, partial curve, poor fit].
For `O=C(C[C@@H]1NS(=O)(=O)OC2CCCCC21)c1ccccc1` (stereo partly specified), the Potency was inconclusive: 39.8 µM [inhibitor, partial curve, poor fit].
`COc1cc(OC)c2c(O)c3c(c(-c4c5c(c(O)c6c(OC)cc(OC)cc46)CO[C@@H](C)[C@H]5O)c2c1)[C@H](O)[C@H](C)OC3` was tested, and the Potency was inconclusive: 39.8 µM [inhibitor, single point].
`CN1CCN(C(=O)CN(c2ccccc2)S(=O)(=O)N(C)C)CC1` was tested, and the “activity, negative = inhibition” value was inactive: 47.5%.
`O=C(Nc1c(C(=O)O)oc2ccccc12)c1ccc(C(F)(F)F)cc1` was tested, and the “activity, negative = inhibition” value was inactive: 5.15%.
`CC(C)C(NC(=O)c1ccccc1Br)c1ccccc1` (stereo unspecified) was tested, and the “activity, negative = inhibition” value was inactive: 42.6%.
For `Cc1ccccc1Cc1c(C)nc2nc(SCC(=O)NCCc3ccc(Cl)cc3)nn2c1C`, the “activity, negative = inhibition” value was inactive: 5.9%.
With `CCCSc1nnc(NC(=O)c2nc(SC)ncc2Cl)s1` the Potency was inconclusive: 20 µM [inhibitor, partial curve, poor fit].
For `Cc1ccc2cc(N)ccc2n1`, the “activity, negative = inhibition” value was inactive: 91.6%.
In the case of `O=C(O)c1ccc(Cl)c(S(=O)(=O)Nc2ccc3[nH]c(=O)[nH]c3c2)c1`, the Potency is reported as inconclusive: 22.4 µM [inhibitor, partial curve, poor fit].
For `O=C(O)CCCNC1=NCCC1`, the “activity, negative = inhibition” value was inactive: -3.19%.
With `CCOc1ccc(Nc2nc3cc(S(=O)(=O)N(CC)CC)ccc3o2)cc1` the Potency was inconclusive: 14.1 µM [inhibitor, partial curve, poor fit].
`CC(C)C(c1nnnn1C(C)(C)C)N1CCN(c2cccc(Cl)c2)CC1` (stereo unspecified) was tested, and the Potency was inconclusive: 20 µM [inhibitor, partial curve, poor fit].
For `Cc1ccc(NC(=O)CCC(=O)N2CCSc3ccccc32)cc1Cl`, the “activity, negative = inhibition” value was inactive: 17%.
With `Cc1nc2cc(C(=O)OCC(=O)NC(C)C(C)C)ccc2n1-c1ccccc1` (stereo unspecified) the “activity, negative = inhibition” value was inactive: 12.6%.
With `O=C1CSC(=S)N1N=Cc1ccc(Cl)cc1Cl` the Potency was inconclusive: 20 µM [inhibitor, full curve].
`CC12CN3CC(C)(CN(C1)C3c1ccc3ccccc3c1O)C2=O` (stereo unspecified) was tested, and the Potency was active: 79.4 µM.
With `CC(=O)c1ccc(NC(=O)Cn2cc(S(=O)(=O)Cc3ccccc3Cl)c3ccccc32)cc1` the Potency was inconclusive: 100 µM [inhibitor, partial curve, poor fit].
In the case of `Cc1c(NC(=O)C(C)(C)Oc2ccc(Cl)cc2)cccc1-c1nc2ncccc2o1`, the Potency is reported as inconclusive: 89.1 µM [inhibitor, single point].
With `O=C(Cc1cc(=O)oc2cc(O)ccc12)NC(Cc1ccc(Cl)cc1)C(=O)O` (stereo unspecified) the “activity, negative = inhibition” value was inactive: 4.32%.
For `Oc1c(Cl)cc(Cl)c(Cl)c1Cc1c(O)c(Cl)cc(Cl)c1Cl`, the Potency was inconclusive: 50.1 µM [inhibitor, partial curve, poor fit].
With `CC1CCCC(NS(=O)(=O)c2cc3c(cc2Cl)NC(=O)CO3)C1C` (stereo unspecified) the Potency was inconclusive: 70.8 µM [inhibitor, partial curve, poor fit].
`COC(=O)C1C2CC3c4[nH]c5cc(OC)ccc5c4CCN3CC2CC(OC(=O)CC(C)=O)C1OC` (stereo unspecified) was tested, and the Potency was inconclusive: 35.5 µM [inhibitor, partial curve, poor fit].
`O=C(c1ccc2c(=O)n(Cc3ccco3)c(=S)[nH]c2c1)N1CCN(Cc2ccc3c(c2)OCO3)CC1` was tested, and the Potency was active: 89.1 µM.
With `CCOC(=O)C(C(=O)OCC)C(Nc1ccc(Br)cc1)c1ccccc1` (stereo unspecified) the Potency was inconclusive: 39.8 µM [inhibitor, partial curve, poor fit].
With `CC(=O)N(CCCCN1C(=O)c2ccccc2C1=O)c1ccc(C)cc1` the Potency was inconclusive: 39.8 µM [inhibitor, single point].
`CCOC(=O)/C(C#N)=C1\Nc2ccccc2N=C1N(CC(C)C)CC(C)C` was tested, and the Potency was inconclusive: 39.8 µM [inhibitor, partial curve, poor fit].
`O=C(NCc1cccnc1)/C(=C\c1ccc(-c2cccc(Cl)c2)o1)S(=O)(=O)c1ccccc1` was tested, and the Potency was inconclusive: 35.5 µM [inhibitor, partial curve, poor fit].
For `COc1cccc(-n2c(C)c3c(OC)cccc(=O)c3c2C)c1`, the Potency was inconclusive: 22.4 µM [inhibitor, partial curve, poor fit].
With `CCCc1c(-c2ccc(O)cc2)nn(-c2ccc(O)cc2)c1-c1ccc(O)cc1` the Potency was “inactive”.
For `CCCCC[C@H](O)/C=C/C1=C(CCCCCCC(=O)O)C(=O)CC1`, the Potency was active: 44.7 µM.
In the case of `CN(C(=O)c1cc2n(n1)C(C(F)(F)F)CC(c1ccco1)N2)c1ccccc1` (stereo unspecified), the “activity, negative = inhibition” value is reported as inactive: -0.29%.
With `COc1ccc(NC(=O)c2c(NCc3sccc3C)sc3c2CCCCC3)c(OC)c1` the Potency was inconclusive: 35.5 µM [inhibitor, partial curve, poor fit].
In the case of `CCCNC(=O)Cn1nc(-c2ccc(F)cc2)c2cnc3ccc(F)cc3c21`, the Potency is reported as inconclusive: 89.1 µM [inhibitor, partial curve, poor fit].
